PubChem BioAssay AID1671195 – Yale University | 2021

- Purpose: 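Regulators of LDL receptor activity judged by labelled LDL uptake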 (primary screen)
- Cell system: human Huh7 hepatoma cells
- Knock-down reagent: siRNA pool against human genes, 18 nM
- Duration: about 2 to 2.5 days of knockdown, then 8 h LDL uptake
- Challenge: DiI-labelled LDL at 30 µg/ml for 8 h, in lipoprotein-deficient serum medium
- Read-out: 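Per-cell DiI-LDL intensity by automated imaging; well means scaled to the plate median and given as a robust z-score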
- Direction: robust z-score: higher = more LDL uptake after knockdown
- Call rule: 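a gene counts as active if at least two replicate z-scores exceed ±2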
Shown is a random part of about 22,000 deposited reagents. About 1,510 of them (6.9%) were called active. 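Active includes knockdowns raising or lowering LDL uptake; positive z-scores mean more uptake, negative mean less.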 A number with no mark means an inactive call. No sequences are given here.

Target gene | robust z-score, replicate 1 | robust z-score, replicate 2 | robust z-score, replicate 3
LOC285721 (retired record) | -1.17 | -0.904 | -1.14
CDRT15L2 | 1.45 | 1.58 | 1.26
WARS1P1 | 0.429 | -0.0336 | 0.0371
H3C10 | -0.505 | -0.155 | -0.561
ZNF623 | -2.65 (active) | -2.58 | -1.65
CTAGE14P | -1.04 | -1.33 | -1.14
LOC285321 (retired record) | -1.46 | -1.59 | -1.42
EDDM3B | 0.442 | -0.211 | 2.09
UBQLN3 | 0.596 | -1 | 0.918
USP22 | 1.24 | -0.106 | 1.43
TMEM52 | 1.3 | 1.61 | 1.62
ALG10 | 0.0513 | 0.147 | -0.271
KRT25 | -0.245 | -0.0167 | -0.284
OR8A1 | 1.75 | 1.16 | 1.76
LOC346910 (retired record) | 0.403 | 0.144 | -0.286
LOC389085 (retired record) | 0.0521 | 0.19 | 0.38
TSPO2 | 1.32 | 1.38 | 1.36
PREPL | 0.455 | 0.417 | 0.989
CYB5R4 | 0.668 | -0.259 | 0.568
STX10 | -0.571 | -0.259 | -0.43
MOCS2 | -1.27 | -0.974 | -0.829
SPRNP1 | -0.734 | -1.6 | -1.83
MTX1 | 0.359 | 0.581 | 0.34
VWA5B1 | -0.0148 | -0.308 | 0.407
PRSS36 | 0.819 | 0.975 | 0.995
LOC402426 (retired record) | -1.07 | -0.368 | -0.906
PDCD7 | 0.688 | 0.72 | -0.742
SCIN | -1.03 | -0.437 | -0.782

Records listed so far whose gene name begins with S or s:
Target gene | robust z-score, replicate 1 | robust z-score, replicate 2 | robust z-score, replicate 3
STX10 | -0.571 | -0.259 | -0.43
SPRNP1 | -0.734 | -1.6 | -1.83
SCIN | -1.03 | -0.437 | -0.782
